The results in this text go back to article PMC4036362, “Normal Activation of Discoidin Domain Receptor 1 Mutants with Disulfide Cross-links, Insertions, or Deletions in the Extracellular Juxtamembrane Region” (The Journal of Biological Chemistry, 2014).

Common to all, as to experiment: cross-linking; disulfide cross-linking of introduced cysteines in transiently transfected HEK293 cells, untreated or with 10 ug/ml collagen I for 90 min at 37 °C; lysis in 1% Nonidet P-40 buffer with NEM; nonreducing SDS-PAGE on 5% gels, Western blot with anti-DDR1; efficiency as percent dimeric of total DDR1
The target in experiment [1] is DDR1 P387C (in the C287S background) (human) (UniProt Q08345).
Experiment [2] deals with DDR1 L247C (in the C287S background) (human) (UniProt Q08345).
Experiment [3] concerns the target DDR1 E412C/C422A (in the C287S/C422A background) (human) (UniProt Q08345).
Experiment [4] concerns the target DDR1 G377C (in the C287S background) (human) (UniProt Q08345).
Experiment [5] addresses DDR1 V220C (in the C287S background) (human) (UniProt Q08345).
Experiment [6] has as its target DDR1 V408C/C422A (in the C287S/C422A background) (human) (UniProt Q08345).
For experiment [7], the target named is DDR1 A417C (in the C287S background) (human) (UniProt Q08345).
Experiment [8] addresses DDR1 residue 420 to cysteine (in the C287S background) (human) (UniProt Q08345).
Experiment [9] has as its target DDR1 residue 418 to cysteine (in the C287S background) (human) (UniProt Q08345).
Experiment [10] concerns the target DDR1 G421C (in the C287S background) (human) (UniProt Q08345).
In experiment [11] the target is DDR1 residue 419 to cysteine (in the C287S background) (human) (UniProt Q08345).

Changes are numbered by the printed parent chain. Names may count otherwise. These are yes or no findings as the source states them, for the method shown. In cells and extracts the contact can be indirect. Some results given as binding are weak or reduced against the parent protein; the word gives no strength.

Regarding “DDR1 P387C (in the C287S background) (from UniProt Q08345 19-913) (receptor)”, the binding result in experiment [1] is reported as “binds”.
Consider “DDR1 L247C (in the C287S background) (from UniProt Q08345 19-913) (receptor)”, for which the binding entry in experiment [2] is listed as “binds”.
For “DDR1 E412C/C422A (in the C287S/C422A background) (from UniProt Q08345 19-913) (receptor)”, in experiment [3], the binding result is given as “binds”.
Take “DDR1 G377C (in the C287S background) (from UniProt Q08345 19-913) (receptor)”: the binding entry in [4] was “binds”.
For the molecule “DDR1 V220C (in the C287S background) (from UniProt Q08345 19-913) (receptor)”, the binding entry in experiment [5] is on record as “binds”.
As for “DDR1 V408C/C422A (in the C287S/C422A background) (from UniProt Q08345 19-913) (receptor)”, in experiment [6], the binding result is “binds”.

B1: DDR1 A417C (in the C287S background) (receptor, human, UniProt Q08345 19-913, looked up)
chain: DADMKGHFDPAKCRYALGMQDRTIPDSDISASSSWSDSTAARHSRLESSDGDGAWCPAGSVFPKEEEYLQVDLQRLHLVALVGTQGRHAGGLGKEFSRSYRLRYSRDGRRWMGWKDRWGQEVISGNEDPEGVVLKDLGPPMVARLVRFYPRADRVMSVCLRVELYGCLWRDGLLSYTAPVGQTMYLSEAVYLNDSTYDGHTVGGLQYGGLGQLADGVVGLDDFRKSQELRVWPGYDYVGWSNHSFSSGYVEMEFEFDRLRAFQAMQVHSNNMHTLGARLPGGVECRFRRGPAMAWEGEPMRHNLGGNLGDPRARAVSVPLGGRVARFLQCRFLFAGPWLLFSEISFISDVVNNSSPALGGTFPPAPWWPPGPPPTNFSSLELEPRGQQPVAKAEGSPTCILIGCLVAIILLLLLIIALMLWRLHWRRLLSKAERRVLEEELTVHLSVPGDTILINNRPGPREPPPYQEPRPRGNPPHSAPCVPNGSALLLSNPAYRLLLATYARPPRGPGPPTPAWAKPTNTQAYSGDYMEPEKPGAPLLPPPPQNSVPHYAEADIVTLQGVTGGNTYAVPALPPGAVGDGPPRVDFPRSRLRFKEKLGEGQFGEVHLCEVDSPQDLVSLDFPLNVRKGHPLLVAVKILRPDATKNARNDFLKEVKIMSRLKDPNIIRLLGVCVQDDPLCMITDYMENGDLNQFLSAHQLEDKAAEGAPGDGQAAQGPTISYPMLLHVAAQIASGMRYLATLNFVHRDLATRNCLVGENFTIKIADFGMSRNLYAGDYYRVQGRAVLPIRWMAWECILMGKFTTASDVWAFGVTLWEVLMLCRAQPFGQLTDEQVIENAGEFFRDQGRQVYLSRPPACPQGLYELMLRCWSRESEQRPPFSQLHRFLAEDALNTV
notes: discoidin domain receptor 1, isoform DDR1b, human; full-length cDNA in pRK5; source: HEK293, transiently transfected, in lysate
For the molecule B1, in experiment [7], the binding entry was “binds”.

B2: DDR1 residue 420 to cysteine (in the C287S background) (receptor, human, UniProt Q08345 19-913, looked up)
chain: B1 chain with C399A, I402C
notes: discoidin domain receptor 1, isoform DDR1b, human; full-length cDNA in pRK5; also called TM cysteine mutant, residue 420; source: HEK293, transiently transfected, in lysate
As to B2, the binding result in experiment [8] is “binds”.

B3: DDR1 residue 418 to cysteine (in the C287S background) (receptor, human, UniProt Q08345 19-913, looked up)
chain: B1 chain with C399A, I400C
notes: as for B1
As to B3, in experiment [9], the binding entry is listed as “binds”.

B4: DDR1 G421C (in the C287S background) (receptor, human, UniProt Q08345 19-913, looked up)
chain: B1 chain with C399A, G403C
notes: as for B1
With B4, the binding result in experiment [10] is “binds”.

B5: DDR1 residue 419 to cysteine (in the C287S background) (receptor, human, UniProt Q08345 19-913, looked up)
chain: B1 chain with C399A, L401C
notes: discoidin domain receptor 1, isoform DDR1b, human; full-length cDNA in pRK5; also called TM cysteine mutant, residue 419; source: HEK293, transiently transfected, in lysate
In the case of B5, the binding result in [11] is “binds”.
